Drawing on paper PMC7862700, this text covers binding signal for 22 sequences.

Chains of the proteins cited; added tags and fusions are not shown. Lines headed by an entry give the natural chain unless they say otherwise; changes in a name come on top.
UniProt Q01892: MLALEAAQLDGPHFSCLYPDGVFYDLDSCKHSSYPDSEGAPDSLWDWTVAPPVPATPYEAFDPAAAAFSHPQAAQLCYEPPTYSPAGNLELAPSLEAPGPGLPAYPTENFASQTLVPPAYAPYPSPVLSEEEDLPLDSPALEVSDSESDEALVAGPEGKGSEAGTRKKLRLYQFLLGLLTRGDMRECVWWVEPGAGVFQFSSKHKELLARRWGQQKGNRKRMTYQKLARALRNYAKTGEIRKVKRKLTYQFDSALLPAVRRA
UniProt P41161: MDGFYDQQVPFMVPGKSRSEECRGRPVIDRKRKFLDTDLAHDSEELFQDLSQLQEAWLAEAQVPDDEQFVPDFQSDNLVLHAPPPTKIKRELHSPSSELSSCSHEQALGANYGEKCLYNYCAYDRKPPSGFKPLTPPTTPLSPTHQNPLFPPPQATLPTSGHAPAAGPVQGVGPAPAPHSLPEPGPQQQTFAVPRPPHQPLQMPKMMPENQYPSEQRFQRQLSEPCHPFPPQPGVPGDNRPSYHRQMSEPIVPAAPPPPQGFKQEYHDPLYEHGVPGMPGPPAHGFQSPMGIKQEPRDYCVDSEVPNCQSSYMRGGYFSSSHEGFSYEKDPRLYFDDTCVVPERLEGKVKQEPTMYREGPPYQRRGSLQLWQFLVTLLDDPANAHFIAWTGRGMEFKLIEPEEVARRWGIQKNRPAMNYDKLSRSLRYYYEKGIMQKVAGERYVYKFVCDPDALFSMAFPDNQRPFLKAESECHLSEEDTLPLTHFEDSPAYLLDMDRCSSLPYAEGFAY
UniProt Q99607: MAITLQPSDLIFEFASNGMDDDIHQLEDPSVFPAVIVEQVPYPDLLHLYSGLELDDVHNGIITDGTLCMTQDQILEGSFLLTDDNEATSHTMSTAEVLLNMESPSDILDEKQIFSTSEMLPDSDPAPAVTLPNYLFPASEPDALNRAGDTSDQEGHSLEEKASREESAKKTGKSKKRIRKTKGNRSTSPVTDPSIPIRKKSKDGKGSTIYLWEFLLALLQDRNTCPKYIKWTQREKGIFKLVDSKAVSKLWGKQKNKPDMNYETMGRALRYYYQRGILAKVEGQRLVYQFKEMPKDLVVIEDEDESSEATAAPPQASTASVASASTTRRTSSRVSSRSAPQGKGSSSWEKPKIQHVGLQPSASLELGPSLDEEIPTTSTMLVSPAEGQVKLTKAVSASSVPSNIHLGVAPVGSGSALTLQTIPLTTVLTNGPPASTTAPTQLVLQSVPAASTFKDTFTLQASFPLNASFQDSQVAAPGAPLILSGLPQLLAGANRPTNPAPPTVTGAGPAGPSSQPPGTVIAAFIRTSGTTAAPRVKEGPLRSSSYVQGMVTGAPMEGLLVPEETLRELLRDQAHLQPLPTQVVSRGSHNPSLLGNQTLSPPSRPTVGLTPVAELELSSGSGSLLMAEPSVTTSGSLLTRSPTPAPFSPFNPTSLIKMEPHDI

The entries are a selection whose mix differs from that of the whole data set. At the low end of the ranking, values are background and their order means little.

Test in all cases: DAPPL (digital affinity profiling via proximity ligation, sequencing)
Conditions in all cases: 10 mM Tris-HCl pH 7.5, 50 mM NaCl, 1 mM DTT, 4% glycerol, room temperature, 30 min; GST-TFs on glutathione beads, 16-mer random dsDNA library, 0.1% …; high values mean tight binding; double strand, one strand shown; scale: fold enrichment (6-mer frequency, TF over GST control)

The target in assay [1] is T1, FLI1 (UniProt Q01543).
T1 sequence: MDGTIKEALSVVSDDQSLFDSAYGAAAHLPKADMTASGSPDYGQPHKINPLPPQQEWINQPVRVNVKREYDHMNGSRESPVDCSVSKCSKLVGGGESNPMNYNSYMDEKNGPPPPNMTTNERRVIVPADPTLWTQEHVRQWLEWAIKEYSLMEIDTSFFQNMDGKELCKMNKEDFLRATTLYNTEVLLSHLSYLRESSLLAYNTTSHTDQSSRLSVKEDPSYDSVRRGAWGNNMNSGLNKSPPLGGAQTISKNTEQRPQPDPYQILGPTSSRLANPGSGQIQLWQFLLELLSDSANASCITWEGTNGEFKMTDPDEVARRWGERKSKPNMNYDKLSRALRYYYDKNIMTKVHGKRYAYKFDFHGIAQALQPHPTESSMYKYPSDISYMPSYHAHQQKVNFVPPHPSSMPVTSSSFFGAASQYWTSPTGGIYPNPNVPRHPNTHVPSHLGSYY

The target in assay [2] is T2, EHF (UniProt Q9NZC4).
T2 sequence: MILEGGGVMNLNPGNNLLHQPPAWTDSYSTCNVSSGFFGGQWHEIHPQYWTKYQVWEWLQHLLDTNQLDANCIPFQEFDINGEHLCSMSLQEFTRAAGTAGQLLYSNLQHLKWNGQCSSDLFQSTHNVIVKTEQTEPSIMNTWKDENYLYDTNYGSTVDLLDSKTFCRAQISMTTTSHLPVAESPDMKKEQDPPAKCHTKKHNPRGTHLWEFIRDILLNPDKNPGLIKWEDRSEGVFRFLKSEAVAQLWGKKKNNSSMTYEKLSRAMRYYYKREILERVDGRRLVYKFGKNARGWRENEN

In assay [3] the target is SPIB (UniProt Q01892).
For assay [4], the target named is ETV5 (UniProt P41161).
Assay [5] has as its target ELF4 (UniProt Q99607).
Assay [6] concerns the target T3, ETV2 (UniProt O00321).
T3 sequence: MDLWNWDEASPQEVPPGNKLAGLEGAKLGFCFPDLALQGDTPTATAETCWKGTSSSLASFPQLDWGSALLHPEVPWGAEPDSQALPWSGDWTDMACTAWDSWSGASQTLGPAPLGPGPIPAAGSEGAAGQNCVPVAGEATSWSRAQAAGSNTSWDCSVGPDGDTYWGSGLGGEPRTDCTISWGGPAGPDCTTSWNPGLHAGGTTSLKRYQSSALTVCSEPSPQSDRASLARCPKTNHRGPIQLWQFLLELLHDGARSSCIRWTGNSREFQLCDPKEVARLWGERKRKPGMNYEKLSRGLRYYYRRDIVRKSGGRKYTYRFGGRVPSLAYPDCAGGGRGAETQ

The target of assay [7] is T4, ETV3L (UniProt Q6ZN32).
T4 sequence: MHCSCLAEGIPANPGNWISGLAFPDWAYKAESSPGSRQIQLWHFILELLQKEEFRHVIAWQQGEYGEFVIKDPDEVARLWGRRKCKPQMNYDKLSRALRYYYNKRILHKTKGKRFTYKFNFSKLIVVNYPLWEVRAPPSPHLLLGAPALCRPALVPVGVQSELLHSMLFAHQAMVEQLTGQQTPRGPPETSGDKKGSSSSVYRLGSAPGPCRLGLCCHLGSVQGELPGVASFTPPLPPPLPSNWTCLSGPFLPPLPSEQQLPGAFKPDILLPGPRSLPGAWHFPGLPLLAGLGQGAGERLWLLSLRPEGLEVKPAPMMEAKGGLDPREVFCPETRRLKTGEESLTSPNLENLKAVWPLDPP

On to TCATAG, for which the binding signal in assay [1] amounted to 0.926; in assay [2] it was 0.793; in assay [3], 0.979; in assay [4], 0.889; in assay [5], 0.887; in assay [6] it was 0.921. The binding signal in assay [7] amounted to 0.922.

As to CCAAAG, the binding signal in assay [1] turned out to be 0.896; in assay [2] it was 0.933; in assay [4], 0.911; in assay [5], 0.964; in assay [6], 0.944; in assay [7] it was 0.96.

Regarding GCCACA, the binding signal in assay [1] came out at 0.935; in assay [2], 0.929; in assay [3], 0.874; in assay [4] it was 0.971; in assay [5], 0.956; in assay [6] it was 0.912. Further, in assay [7], the binding signal is 0.946.

For GTGGTA, the binding signal in assay [1] amounted to 0.954; in assay [2], 0.924; in assay [4], 0.939; in assay [5], 0.89; in assay [6], 0.915; in assay [7] it was 0.894.

For CGGCAC, the binding signal in assay [1] was 0.965; in assay [2], 0.997; in assay [4], 0.977; in assay [5] it was 0.94; in assay [6] it was 0.875; in assay [7], 0.985.

On to GGAATG, for which the binding signal in assay [1] came to 0.838; in assay [2], 0.868; in assay [3], 0.924; in assay [4] it was 0.839; in assay [5], 0.843; in assay [6] it was 0.937. Also, the binding signal in assay [7] was 0.918.

Take GGATAA: the binding signal in assay [1] is 0.782; in assay [2], 0.788; in assay [3], 0.78; in assay [4], 0.792; in assay [5], 0.775; in assay [6], 0.808. The same sequence showed a binding signal in assay [7] of 0.763.

GGATCA: the binding signal was found to be 0.772 in assay [1]; 0.807 in assay [2]; 0.768 in assay [3]; 0.792 in assay [4]; 0.813 in assay [5]; 0.841 in assay [6]. For the same sequence, the binding signal in assay [7] turned out to be 0.879.

For AGGTGT, the binding signal amounted to 0.842 in assay [1]; 0.772 in assay [2]; 0.83 in assay [3]; 0.854 in assay [4]; 0.834 in assay [5]; 0.833 in assay [6]. The binding signal in assay [7] was 0.77.

Turning to GCAGAA, the binding signal in assay [1] turned out to be 0.94; in assay [2], 0.952; in assay [3], 0.934; in assay [4], 0.909; in assay [5] it was 0.912; in assay [6], 0.962. For the same sequence, in assay [7], the binding signal worked out at 0.844.

In the case of GGTTAA, the binding signal in assay [1] was 0.964; in assay [2], 0.888; in assay [3] it was 0.915; in assay [4], 0.891; in assay [5], 0.931; in assay [6] it was 0.851. The sequence further showed a binding signal in assay [7] of 0.914.

For AGAAGA, the binding signal was 0.907 in assay [1]; 0.889 in assay [2]; 0.971 in assay [3]; 0.895 in assay [4]; 0.974 in assay [5]; 0.945 in assay [6]. In assay [7], the binding signal came out at 0.903.

As to TGGGAC, the binding signal in assay [1] was found to be 0.995; in assay [2], 0.886; in assay [3], 0.89; in assay [4], 0.985; in assay [5], 0.935; in assay [6], 1.14. Further, in assay [7], the binding signal was determined as 0.912.

As to TGTAAG, the binding signal was found to be 0.996 in assay [1]; 1.08 in assay [4]; 0.996 in assay [5]; 0.906 in assay [6]; 1.03 in assay [7].

With TCGTCC, the binding signal in assay [1] was found to be 1.1; in assay [4] it was 1.01; in assay [5], 0.994; in assay [6], 0.968; in assay [7] it was 0.988.

As for GTATTG, the binding signal was 0.97 in assay [1]; 0.992 in assay [2]; 0.921 in assay [4]; 0.968 in assay [5]; 0.783 in assay [6]; 1.01 in assay [7].

Take TTAGTC: the binding signal in assay [1] amounted to 0.762; in assay [2], 0.785; in assay [3], 0.753; in assay [4] it was 0.806; in assay [5] it was 0.793; in assay [6], 0.821. This sequence also displayed a binding signal in assay [7] of 0.859.

On to AGTTTG, for which the binding signal in assay [1] came out at 0.989; in assay [2], 0.878; in assay [3] it was 0.942; in assay [4], 0.901; in assay [5] it was 0.915; in assay [6], 0.942. For the same sequence, the binding signal in assay [7] was found to be 0.933.

For the sequence TTAGTG, the binding signal in assay [1] is 0.847; in assay [2], 0.861; in assay [3], 0.881; in assay [4] it was 0.837; in assay [5], 0.858; in assay [6], 0.861. Besides, in assay [7], the binding signal was 0.772.

Regarding TGATCG, the binding signal was 1 in assay [1], 1.03 in assay [4], 1.05 in assay [5] and 0.961 in assay [6].

Turning to AGCTTG, the binding signal came out at 0.983 in assay [1]; 0.942 in assay [2]; 0.922 in assay [3]; 0.991 in assay [4]; 0.819 in assay [5]; 0.958 in assay [6]. In addition, in assay [7], the binding signal was 0.885.

Regarding GTGTTG, the binding signal in assay [1] was determined as 0.953; in assay [2], 0.94; in assay [3] it was 0.856; in assay [4] it was 0.883; in assay [5], 0.879; in assay [6], 0.977. The binding signal in assay [7] came out at 0.988.
